Reference: US20220016257A1
No constants are given. Whether binding was seen depends on the method and setting. Some binding calls cover weakened binding; strength is not graded here.

Tests used:
[1] = target: T1, EC2-deleted human CDH6 (EC2 deletion mutant, on cells) (human) (UniProt P55285); experiment: flow cytometry, 293α cells transiently expressing EC2-deleted hCDH6 (open) against untransfected cells (shaded), APC anti-human IgG F(ab')2
T1 sequence: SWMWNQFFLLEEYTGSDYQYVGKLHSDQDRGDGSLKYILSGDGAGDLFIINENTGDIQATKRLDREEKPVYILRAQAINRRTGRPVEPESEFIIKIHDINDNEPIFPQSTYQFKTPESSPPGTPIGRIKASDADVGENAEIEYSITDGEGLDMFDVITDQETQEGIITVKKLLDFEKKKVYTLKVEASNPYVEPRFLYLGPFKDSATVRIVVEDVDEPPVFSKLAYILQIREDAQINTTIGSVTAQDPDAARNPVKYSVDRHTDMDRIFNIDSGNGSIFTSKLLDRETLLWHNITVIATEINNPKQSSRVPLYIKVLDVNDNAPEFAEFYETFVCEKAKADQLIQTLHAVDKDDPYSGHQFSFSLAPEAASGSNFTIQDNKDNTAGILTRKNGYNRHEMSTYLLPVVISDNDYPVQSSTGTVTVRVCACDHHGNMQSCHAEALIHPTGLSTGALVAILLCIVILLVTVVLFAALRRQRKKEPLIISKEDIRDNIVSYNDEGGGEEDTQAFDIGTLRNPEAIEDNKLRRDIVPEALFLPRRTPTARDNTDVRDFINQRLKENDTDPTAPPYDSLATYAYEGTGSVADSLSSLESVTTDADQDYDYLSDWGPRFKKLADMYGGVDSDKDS

[2] = target: EC3-deleted human CDH6 (EC3 deletion mutant, on cells) (human) (UniProt P55285); experiment: flow cytometry, 293α cells transiently expressing EC3-deleted hCDH6 (open) against untransfected cells (shaded), APC anti-human IgG F(ab')2
[3] = target: T2, EC4-deleted human CDH6 (EC4 deletion mutant, on cells) (human) (UniProt P55285); experiment: flow cytometry on transfected 293α cells
T2 sequence: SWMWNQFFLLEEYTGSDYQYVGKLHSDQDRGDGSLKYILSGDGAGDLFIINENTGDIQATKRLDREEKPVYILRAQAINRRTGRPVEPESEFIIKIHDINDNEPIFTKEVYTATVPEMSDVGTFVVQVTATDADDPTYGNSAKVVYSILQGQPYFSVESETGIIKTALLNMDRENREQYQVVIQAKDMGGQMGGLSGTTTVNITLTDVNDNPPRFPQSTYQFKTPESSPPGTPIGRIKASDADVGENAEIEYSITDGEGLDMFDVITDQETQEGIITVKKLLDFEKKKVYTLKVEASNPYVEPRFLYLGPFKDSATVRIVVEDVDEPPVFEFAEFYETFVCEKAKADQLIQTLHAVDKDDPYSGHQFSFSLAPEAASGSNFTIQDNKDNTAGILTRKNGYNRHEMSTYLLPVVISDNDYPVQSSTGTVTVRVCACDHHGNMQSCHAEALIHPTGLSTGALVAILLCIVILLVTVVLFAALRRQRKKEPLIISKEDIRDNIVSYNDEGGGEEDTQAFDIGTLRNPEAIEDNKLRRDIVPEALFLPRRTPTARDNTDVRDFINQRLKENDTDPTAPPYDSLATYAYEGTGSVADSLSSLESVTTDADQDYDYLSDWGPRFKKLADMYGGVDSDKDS

[4] = target: T1, EC2-deleted human CDH6 (EC2 deletion mutant, on cells) (human); experiment: flow cytometry on transfected 293α cells
[5] = target: EC3-deleted human CDH6 (EC3 deletion mutant, on cells) (human) (UniProt P55285); experiment: flow cytometry on transfected 293α cells
[6] = target: T3, EC1-deleted human CDH6 (EC1 deletion mutant, on cells) (human) (UniProt P55285); experiment: flow cytometry on transfected 293α cells
T3 sequence: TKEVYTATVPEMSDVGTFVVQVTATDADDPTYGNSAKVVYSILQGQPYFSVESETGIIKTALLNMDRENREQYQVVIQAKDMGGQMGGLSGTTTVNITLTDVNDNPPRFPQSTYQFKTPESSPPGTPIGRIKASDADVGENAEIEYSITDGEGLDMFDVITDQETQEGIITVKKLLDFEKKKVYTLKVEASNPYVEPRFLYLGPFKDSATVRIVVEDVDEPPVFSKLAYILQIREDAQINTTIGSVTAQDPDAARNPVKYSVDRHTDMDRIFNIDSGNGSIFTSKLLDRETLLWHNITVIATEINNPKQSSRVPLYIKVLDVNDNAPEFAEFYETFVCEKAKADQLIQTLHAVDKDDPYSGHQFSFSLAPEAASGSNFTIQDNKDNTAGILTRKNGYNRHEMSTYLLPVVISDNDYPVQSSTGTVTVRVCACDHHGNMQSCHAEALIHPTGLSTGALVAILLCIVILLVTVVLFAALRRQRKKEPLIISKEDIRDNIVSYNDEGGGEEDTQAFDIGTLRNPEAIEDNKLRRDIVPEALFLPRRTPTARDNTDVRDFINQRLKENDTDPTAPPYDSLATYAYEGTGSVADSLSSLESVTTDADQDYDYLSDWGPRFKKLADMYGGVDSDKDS

[7] = target: T3, EC1-deleted human CDH6 (EC1 deletion mutant, on cells) (human); experiment: flow cytometry, 293α cells transiently expressing EC1-deleted hCDH6 (open) against untransfected cells (shaded), APC anti-human IgG F(ab')2
[8] = target: T2, EC4-deleted human CDH6 (EC4 deletion mutant, on cells) (human); experiment: flow cytometry, 293α cells transiently expressing EC4-deleted hCDH6 (open) against untransfected cells (shaded), APC anti-human IgG F(ab')2

Measured: binding

B1: anti-CDH6 antibody NOV0712 (antibody, V domains shown)
VH: QVQLLESGGGLVQPGGSLRLSCAASGFTFSSHGMHWVRQAPGKGLEWVSVISGSGSNTGYADSVKGRFTISRDNSKNTLYLQMNSLRAEDTAVYYCARQWGSYAFDSWGQGTLVTVSS
VL: DIQMTQSPSSLSASVGDRVTITCRASQSISSYLNWYQQKPGKAPKLLIYAVSTLQSGVPSRFSGSGSGTDFTLTISSLQPEDFATYYCQQSGTFPPTTFGQGTKVEIKR
binds: [1] | [2] | [3] | [4] | [5] | [6] | [7] | [8]
